PubChem BioAssay AID652272, Drosophila RNAi Screening Center – 2013
Test: 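Genome-wide knock-down search for components of Hedgehog signalling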 (primary screen). System: Drosophila clone 8 (Cl8) cells. Reagents: long dsRNA against Drosophila genes. Measurement: 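Firefly light from a Hedgehog-responsive ptc promoter reporter and Renilla reference light, both read on a plate reader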. Scale: firefly Hh reporter signal: higher = more ptc reporter light; Renilla reference signal: higher = more Renilla control light. Rule for the call: 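Called a hit if the two-replicate mean z-score lies below -2 or above +3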. Meaning of the calls: active = hit: reporter lowered or raised; inactive = not a hit.
The screen tested about 21,000 reagents; below is an unselected part of those that have a named target and a result. In the full data, 503 (2.4%) are marked active. 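Raw plate light values, not normalised; calls rest on replicate z-scores that were not deposited; hits include reporter decreases as well as increases.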 Unmarked entries are inactive. Not given: the amount of reagent, the time to read-out.

Gene,dsRNA,"firefly Hh reporter signal, replicate 1","firefly Hh reporter signal, replicate 2","firefly Hh reporter signal, replicate 3","Renilla reference signal, replicate 1","Renilla reference signal, replicate 2"
CG32793,DRSC18145,1.17e5,3.73e5,,4615,12873
CG32793,DRSC18194,95650,1.59e5,,3898,5353
CG9737,DRSC16550,94022,1.24e5,,2850,3489
Coq6,DRSC03040,83715,96376,,3380,4643
CG43095,DRSC13573,2313,1.65e5,,560,4547
CG13217,DRSC06339,1.27e5,63852,,2689,4689
CG42445,DRSC10858,1.44e5,1.02e5,,6038,4316
Tpr2,DRSC03461,1.10e5,92724,,4436,3850
sowi,DRSC12558,70320,1.13e5,,2469,3124
Ublcp1,DRSC14149,1.11e5,57307,,4948,2547
CG10920,DRSC17765,65493,1.82e5,,2130,6929
mRpL42,DRSC06235,78521,63159,,1858,4893
Debcl,DRSC04965,99146,76546,,4713,3713
CG17177,DRSC10257,1.50e5,,,3723,4277
Usp12-46,DRSC16175,5.60e5,73347,,27892,2528
Rab27,DRSC18567,98893,1.01e5,,2731,2620
unc-104,DRSC07710,1.13e5,74530,,3222,4884
S-Lap7,DRSC06374,72497,65080,,1975,5123
mEFG1,DRSC02758,84805,44353,,2589,5344
CG18536,DRSC06763,97664,63552,,2755,4356
asp,DRSC16903,1.04e5,63729,,4976,2804
x16,DRSC00960,8.38e5,2.43e5,,40905,9591
x16,DRSC03638,1.08e5,89568,,4026,3365
CG2915,DRSC06842,73949,50466,,3665,2307
CG34034,DRSC13506,59399,2.18e5,,12598,4822
CG32240,DRSC08093,1.31e5,2.10e5,,4000,9154
CG15286,DRSC01907,1.59e5,39867,,4024,4349
CG11999,DRSC12185,64999,1.17e5,,3430,3606
Gyc88E,DRSC15547,1.24e5,1.34e5,,4213,3789
ZAP3,DRSC17852,72716,90848,,1689,1892
ZAP3,DRSC17853,87589,2.33e5,,2261,9216
ZAP3,DRSC18249,68790,1.93e5,,1833,6816
CG6830,DRSC16124,69639,1.24e5,,2848,3322
hlk,DRSC05021,91593,52789,,2052,2423
hlk,DRSC05022,1.16e5,49292,,2567,3760
CG34283,DRSC13313,5.68e5,91498,,3379,3379
Taf5,DRSC07562,80320,38720,,3392,1552
Cyp4c3,DRSC16631,1.03e5,1.11e5,,1874,2378
lncRNA:CR43498,DRSC17621,4.49e5,1.57e5,,19666,3946
wuho,DRSC18101,53560,2.98e5,,1635,11737
CSN8,DRSC02257,93748,1.82e5,,4024,5702
CG3437,DRSC10366,50231,35517,50992,3659,3632
CG7724,DRSC10905,84437,98674,,3377,3568
TTLL1B,DRSC08594,46517,42112,,4306,3275
P32,DRSC06988,73062,83591,,3766,3457
SkpA,DRSC18833,1.57e5,1.27e5,,2360,2617
CG12106,DRSC17805,88384,72598,,2165,1761
kek5,DRSC19438,1.00e5,1.75e5,,3673,7344
CG34452,DRSC09387,2.15e5,,,4851,
pho,DRSC17219,61896,2.22e5,,2465,9059
Ptpmeg,DRSC08684,57491,66720,,3161,3128
CG15579,DRSC18067,93092,2.05e5,,3444,7213
Nek2,DRSC18124,1.29e5,1.08e5,,3538,2694
CG7423,DRSC20044,71578,1.84e5,,1202,7651
CG33109,DRSC16533,1.09e5,83248,,2032,2010
CG4991,DRSC19928,91481,1.39e5,,2356,3133
CG8191,DRSC20091,75161,1.74e5,,2374,7890
CG43123,DRSC05049,1.11e5,2.24e5,,3104,10273
CtsL2,DRSC06978,82676,63180,,3963,2537
Syt7,DRSC17130,1.55e5,3.56e5,,6082,12365
Syt7,DRSC17159,1.37e5,2.93e5,,5174,10966
CG11560,DRSC09843,1.43e5,85665,,5501,3946
CG1806,DRSC19787,86800,81110,,2213,1989
Fgop2,DRSC02016,40052,54981,,2250,2644
GstD11,DRSC15251,62538,1.48e5,,2194,3492
CG10300,DRSC14225,4.99e5,1.30e5,,28108,4023
Orc6,DRSC07497,95337,46259,,2226,2166
Blos2,DRSC10147,75794,67744,56659,4748,4332
CG15927,DRSC19742,1.08e5,2.54e5,,3179,9740
JIL-1,DRSC11200,91904,99841,,6067,4785
esn,DRSC05039,1.18e5,1.27e5,,2480,5388
esn,DRSC06181,1.14e5,45512,,2850,4640
esn,DRSC07612,93737,46487,,2338,3431
